Results from patent US7211545B2, “Imidazo[1,2-a]pyrimidine and fungicidal compositions containing thereof” (Sumitomo Chemical Company, Limited, priority 2001, dated 2007).
Some results were stated once for a whole list of compounds, not compound by compound.

System: Botrytis cinerea
Experiment: Test Example 1: preventive efficacy against Botrytis cinerea on cucumber
Type: in vivo
Details: 500 ppm flowable, foliar spray on cucumber cotyledons, inoculated after spraying, 12° C. humid, 4 days

| Compound | areas of lesions on treated plants as % of areas of lesions on untreated groups |
| --- | --- |
| Fc1cc(F)c(-c2c(Cl)nc3nccn3c2-n2cnc3ccccc32)c(F)c1 [Compound 521] | ≤ 30% |
| Fc1cccc(F)c1-c1c(Cl)nc2nccn2c1N1CCCCCC1 [Compound 233, 5-(hexamethyleneimine-1-yl)-6-(2,6-difluorophenyl)-7-chloroimidazo[1,2-a]pyrimidine] | ≤ 30% |
| Fc1cc(F)c(-c2c(Cl)nc3nccn3c2N2CC=CCC2)c(F)c1 [Compound 71] | ≤ 30% |
| Fc1ccc(-c2c(Cl)nc3nccn3c2N2CCCCCC2)c(F)c1 [Compound 295] | ≤ 30% |
| Fc1ccccc1-c1c(Cl)nc2nccn2c1N1CCCCCC1 [Compound 259] | ≤ 30% |
| CC1CCCCN1c1c(-c2c(F)cccc2Cl)c(Cl)nc2nccn12 (stereo not shown) [Compound 180] | ≤ 30% |
| CCCN(CCC)c1c(-c2c(F)cc(F)cc2F)c(Cl)nc2nccn12 [Compound 8, 5-(di-n-propylamino)-6-(2,4,6-trifluorophenyl)-7-chloroimidazo[1,2-a]pyrimidine] | ≤ 30% |
| CC1CCCCN1c1c(-c2c(F)cc(F)cc2F)c(Cl)nc2nccn12 (stereo not shown) [Compound 53, 5-(2-methylpiperidin-1-yl)-6-(2,4,6-trifluorophenyl)-7-chloroimidazo[1,2-a]pyrimidine] | ≤ 30% |
| Fc1cccc(Cl)c1-c1c(Cl)nc2nccn2c1N1CCCCCC1 [Compound 187] | ≤ 30% |
| CCCCN(C)c1c(-c2c(F)cc(F)cc2F)c(Cl)nc2nccn12 [Compound 535] | ≤ 30% |
| CC1CCN(c2c(-c3c(F)cc(F)cc3F)c(Cl)nc3nccn23)CC1 [Compound 55, 5-(4-methylpiperidin-1-yl)-6-(2,4,6-trifluorophenyl)-7-chloroimidazo[1,2-a]pyrimidine] | ≤ 30% |
| CC1CCC(C)N1c1c(-c2c(F)cc(F)cc2F)c(Cl)nc2nccn12 (stereo not shown) [Compound 50] | ≤ 30% |
| CCCCN(CCCC)c1c(-c2c(F)cc(F)cc2F)c(Cl)nc2nccn12 [Compound 9] | ≤ 30% |
| Fc1cc(F)c(-c2c(Cl)nc3nccn3c2N2CCCCC2)c(F)c1 [Compound 52] | ≤ 30% |
| CC1CCN(c2c(-c3c(Cl)cccc3Cl)c(Cl)nc3nccn23)CC1 [Compound 285] | ≤ 30% |
| CCc1nc2nccn2c(N2CCC(C)CC2)c1-c1c(F)cccc1Cl [Compound 449] | ≤ 30% |
| CC1CCCCN1c1c(-c2c(F)cccc2F)c(Cl)nc2nccn12 (stereo not shown) [Compound 226] | ≤ 30% |
| Clc1cccc(Cl)c1-c1c(Cl)nc2nccn2c1N1CCCCCC1 [Compound 287] | ≤ 30% |
| Fc1cc(F)c(-c2c(Cl)nc3nccn3c2-n2cccn2)c(F)c1 [Compound 85] | ≤ 30% |

| Compound | areas of lesions on treated plants as % of areas of lesions on untreated groups |
| --- | --- |
| C=CCN(CC=C)c1c(-c2c(F)cc(F)cc2F)c(Cl)nc2nccn12 [Compound 29] | ≤ 30% |
| CC1CCCN(c2c(-c3c(F)cc(F)cc3F)c(Cl)nc3nccn23)C1 (stereo not shown) [Compound 54] | ≤ 30% |
| Fc1cc(F)c(-c2c(Cl)nc3nccn3c2N2CCOCC2)c(F)c1 [Compound 81] | ≤ 30% |
| Fc1cc(F)c(-c2c(Cl)nc3nccn3c2N2CCCCCC2)c(F)c1 [Compound 72, 5-(hexamethyleneimin-1-yl)-6-(2,4,6-trifluorophenyl)-7-chloroimidazo[1,2-a]pyrimidine] | ≤ 30% |
| CC1CCCCCN1c1c(-c2c(F)cc(F)cc2F)c(Cl)nc2nccn12 (stereo not shown) [Compound 73] | ≤ 30% |
| CC1CCCN1c1c(-c2c(F)cc(F)cc2F)c(Cl)nc2nccn12 (stereo not shown) [Compound 49] | ≤ 30% |
| Fc1cc(F)c(-c2c(Cl)nc3nccn3c2N2CCSCC2)c(F)c1 [Compound 83] | ≤ 30% |
| CC1CCN(c2c(-c3c(F)cccc3F)c(Cl)nc3nccn23)CC1 [Compound 228] | ≤ 30% |
| CCC1CCCCN1c1c(-c2c(F)cc(F)cc2F)c(Cl)nc2nccn12 (stereo not shown) [Compound 65] | ≤ 30% |
| CN(c1c(-c2c(F)cc(F)cc2F)c(Cl)nc2nccn12)C1CCCCC1 [Compound 21] | ≤ 30% |
| Clc1ccccc1-c1c(Cl)nc2nccn2c1N1CCCCCC1 [Compound 255] | ≤ 30% |
| CCN(CC)c1c(-c2c(F)cccc2Cl)c(Cl)nc2nccn12 [Compound 161] | ≤ 30% |
| FC(F)(F)c1ccccc1-c1c(Cl)nc2nccn2c1N1CCCCCC1 [Compound 267] | ≤ 30% |
| Clc1nc2nccn2c(N2CCCCCC2)c1-c1ccccc1 [Compound 251] | ≤ 30% |
| CCN(CC)c1c(-c2c(F)cc(F)cc2F)c(Cl)nc2nccn12 [Compound 7] | ≤ 30% |
| Cc1nc2nccn2c(N2CCC(C)CC2)c1-c1c(F)cccc1Cl [Compound 428, 5-(4-methylpiperidin-1-yl)-6-(2-chloro-6-fluorophenyl)-7-methylimidazo[1,2-a]pyrimidine] | ≤ 30% |
| Fc1ccc(-c2c(Cl)nc3nccn3c2N2CCCCCC2)cc1 [Compound 283] | ≤ 30% |
| CC1CC(C)CN(c2c(-c3c(F)cc(F)cc3F)c(Cl)nc3nccn23)C1 (stereo not shown) [Compound 63] | ≤ 30% |
| Cc1cc(C)n(-c2c(-c3c(F)cc(F)cc3F)c(Cl)nc3nccn23)n1 [Compound 89, 5-(3,5-dimethylpyrazol-1-yl)-6-(2,4,6-trifluorophenyl)-7-chloroimidazo[1,2-a]pyrimidine] | ≤ 30% |

System: Sphaerotheca fuliginea
Experiment: Test Example 2: preventive efficacy against Sphaerotheca fuliginea on cucumber
Type: in vivo
Details: 500 ppm flowable, foliar spray on cucumber leaves, inoculated after spraying, 23° C., 12 days

| Compound | areas of lesions on treated plants as % of areas of lesions on untreated groups |
| --- | --- |
| CCCN(CCC)c1c(-c2c(F)cc(F)cc2F)c(Cl)nc2nccn12 [Compound 8, 5-(di-n-propylamino)-6-(2,4,6-trifluorophenyl)-7-chloroimidazo[1,2-a]pyrimidine] | ≤ 30% |
| CC1CCN(c2c(-c3c(F)cc(F)cc3F)c(Cl)nc3nccn23)CC1 [Compound 55, 5-(4-methylpiperidin-1-yl)-6-(2,4,6-trifluorophenyl)-7-chloroimidazo[1,2-a]pyrimidine] | ≤ 30% |
| Fc1cc(F)c(-c2c(Cl)nc3nccn3c2N2CCCCC2)c(F)c1 [Compound 52] | ≤ 30% |
| CCc1nc2nccn2c(N2CCC(C)CC2)c1-c1c(F)cccc1Cl [Compound 449] | ≤ 30% |
| Nc1c(-c2c(F)cc(F)cc2F)c(Cl)nc2nccn12 [Compound 1, 5-amino-6-(2,4,6-trifluorophenyl)-7-chloroimidazo[1,2-a]pyrimidine] | ≤ 30% |
| Fc1cc(F)c(-c2c(Cl)nc3nccn3c2N2CCOCC2)c(F)c1 [Compound 81] | ≤ 30% |
| CN1CCN(c2c(-c3c(F)cc(F)cc3F)c(Cl)nc3nccn23)CC1 [Compound 76] | ≤ 30% |
| Fc1cc(F)c(-c2c(Cl)nc3nccn3c2N2CCSCC2)c(F)c1 [Compound 83] | ≤ 30% |
| CC(C)Nc1c(-c2c(F)cc(F)cc2F)c(Cl)nc2nccn12 [Compound 4] | ≤ 30% |
| CCN(CC)c1c(-c2c(F)cccc2Cl)c(Cl)nc2nccn12 [Compound 161] | ≤ 30% |
| CCN(CC)c1c(-c2c(F)cc(F)cc2F)c(Cl)nc2nccn12 [Compound 7] | ≤ 30% |
